Some of the results follow. Repeats are few or missing, and single values can be far off.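 Labelled rat cortical synaptosomes were engulfed by primary human fetal astrocytes. Engulfment equaled a red/green ratio, corrected for calcein live-cell signal and normalized to the plate median. Compounds were toxic when calcein dropped over 30%, and reduced phagocytosis when below 70% of the median above 5 µM.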
How the values were obtained:
Human fetal astrocytes [1] = assay: loss of total cells relative to no-compound high-control median (toxicity); higher = more toxic (fewer cells); conditions: 24 h
Human fetal astrocytes [2] = assay: synaptosome phagocytosis (pHrodo/calcein intensity ratio) relative to plate median of data wells; higher = more phagocytosis; conditions: 24 h

Row | SMILES | loss of total cells (Human fetal astrocytes [1]; 1.39 µM) | loss of total cells (Human fetal astrocytes [1]; 2.78 µM) | loss of total cells (Human fetal astrocytes [1]; 5.56 µM) | loss of total cells (Human fetal astrocytes [1]; 11.11 µM) | loss of total cells (Human fetal astrocytes [1]; 22.22 µM) | synaptosome phagocytosis (Human fetal astrocytes [2]; 1.39 µM) | synaptosome phagocytosis (Human fetal astrocytes [2]; 2.78 µM) | synaptosome phagocytosis (Human fetal astrocytes [2]; 5.56 µM) | synaptosome phagocytosis (Human fetal astrocytes [2]; 11.11 µM) | synaptosome phagocytosis (Human fetal astrocytes [2]; 22.22 µM)
1 | C[N+]1(C)[C@@H]2CC[C@H]1C[C@@H](OC(=O)C(O)c1ccccc1)C2 (stereo not given in full) | -8% | -16.6% | -14.6% | -17% | 2.1% | 78.8% | 94.6% | 101% | 116% | 74.7%
2 | COc1ccc(C[C@H](N)C(=O)N[C@H]2[C@@H](O)[C@H](n3cnc4c(N(C)C)ncnc43)O[C@@H]2CO)cc1 | -3.3% | 3.4% | 9.9% | 33.6% | 25.5% | 73.5% | 93.7% | 50.7% | 27.9% | 29.3%
3 | CN1CCN(CCCN2c3ccccc3Sc3ccc(Cl)cc32)CC1 | 12.2% | 4.4% | 7.7% | 13.5% | 18.5% | 95.1% | 115% | 110% | 57.3% | 36.6%
4 | COC(=O)C(O)c1ccccc1 (stereo not given) | -15.6% | 13.3% | 28.2% | 38.7% | 16.7% | 109% | 115% | 139% | 124% | 158%
5 | NCCCC[C@H](N[C@@H](CCc1ccccc1)C(=O)O)C(=O)N1CCC[C@H]1C(=O)O | 2.5% | 2.1% | 14.1% | 7.8% | 17% | 78% | 116% | 106% | 110% | 103%
6 | CC(=O)O[C@@H]1C[C@H]2C(C)(C)[C@@H](O)CC[C@]2(C)[C@H]2CC[C@@]3(C)[C@H](c4ccoc4)OC(=O)[C@H]4O[C@]43[C@@]21C [beta-DIHYDROGEDUNOL] | -5.4% | 0% | -13.7% | 0.6% | 10.7% | 82.7% | 109% | 125% | 117% | 118%
7 | COC(=O)Nc1nc2cc(C(=O)c3ccccc3)ccc2[nH]1 | -28.2% | 0.9% | 4.5% | 7.8% | 9.6% | 93% | 118% | 139% | 97.9% | 121%
8 | Clc1ccc(C(Cn2ccnc2)OCc2ccsc2Cl)c(Cl)c1 (stereo not given) | -25.8% | -52.4% | 3.1% | 35.1% | 44.5% | 122% | 78.1% | 115% | 96% | 71%
9 | NC(Cn1ccc(=O)c(O)c1)C(=O)O (stereo not given) | 17.7% | 11.2% | 18.8% | -2.9% | 15.9% | 79.3% | 125% | 162% | 75.9% | 123%
10 | CC12CCC(CC1=O)C2(C)C (stereo not given) | -14.1% | 0.3% | -8.1% | -6.3% | -6.8% | 111% | 102% | 103% | 151% | 95.5%
11 | CC[N+](CC)(CC(=O)Nc1c(C)cccc1C)Cc1ccccc1 | -17.8% | 0% | -36.6% | -5.8% | 7% | 91.1% | 99.2% | 55.4% | 78.4% | 82.4%
12 | CC(C)(CO)[C@@H](O)C(=O)NCCC(=O)NCCSSCCNC(=O)CCNC(=O)[C@H](O)C(C)(C)CO | -14.1% | 11.2% | -1.4% | -9.6% | 21.2% | 87.7% | 131% | 103% | 106% | 40.6%
13 | CN1CC(=O)NC1=N | 17% | 6.1% | -2.2% | -14.6% | 1.5% | 119% | 104% | 81.5% | 105% | 45.8%
14 | CCNC(=O)CC[C@H](N)C(=O)O | -18% | -10.5% | -7.3% | 2% | 3% | 105% | 122% | 127% | 81.3% | 122%
15 | CC1=C(C(=O)O)N2C(=O)[C@@H](NC(=O)[C@H](N)C3=CCC=CC3)[C@H]2SC1 | -22.4% | -0.3% | -0.3% | -16.4% | -13.6% | 86.3% | 101% | 92.7% | 114% | 105%
16 | C=CCCCCCCCCCCCC(O)CC(O)COC(C)=O (stereo not given) | -7.6% | 4.7% | -7.2% | -19.7% | 4.5% | 104% | 83.4% | 56.2% | 30.2% | 71.2%
17 | COc1ccc(OC)c(C(O)CNC(=O)CN)c1 (stereo not given) | 29.8% | -25.4% | -6.2% | 38.4% | 12.1% | 157% | 122% | 114% | 149% | 115%
18 | C=C[C@@H](C1=CC(=O)C(OC)=C(OC)C1=O)c1ccccc1 | 4.7% | -11.3% | 42% | 60.6% | 53% | 95.8% | 90.7% | 110% | 55.7% | 8.9%
19 | CC(C(=O)O)c1ccc(N2Cc3ccccc3C2=O)cc1 (stereo not given) | 5.6% | -11.2% | -7% | 3.7% | 18.5% | 124% | 122% | 123% | 109% | 121%
20 | COc1ccc2c(C)cc(=O)oc2c1 | -24.6% | 4.7% | -14.7% | -0.7% | -4.4% | 68% | 86.2% | 99.7% | 106% | 100%

Complete entries from above. Order of values: loss of total cells (Human fetal astrocytes [1]; 1.39 µM) | loss of total cells (Human fetal astrocytes [1]; 2.78 µM) | loss of total cells (Human fetal astrocytes [1]; 5.56 µM) | loss of total cells (Human fetal astrocytes [1]; 11.11 µM) | loss of total cells (Human fetal astrocytes [1]; 22.22 µM) | synaptosome phagocytosis (Human fetal astrocytes [2]; 1.39 µM) | synaptosome phagocytosis (Human fetal astrocytes [2]; 2.78 µM) | synaptosome phagocytosis (Human fetal astrocytes [2]; 5.56 µM) | synaptosome phagocytosis (Human fetal astrocytes [2]; 11.11 µM) | synaptosome phagocytosis (Human fetal astrocytes [2]; 22.22 µM)
CC(=O)O[C@@H]1C[C@H]2C(C)(C)[C@@H](O)CC[C@]2(C)[C@H]2CC[C@@]3(C)[C@H](c4ccoc4)OC(=O)[C@H]4O[C@]43[C@@]21C [beta-DIHYDROGEDUNOL] reads -5.4% | 0% | -13.7% | 0.6% | 10.7% | 82.7% | 109% | 125% | 117% | 118%
CCNC(=O)CC[C@H](N)C(=O)O reads -18% | -10.5% | -7.3% | 2% | 3% | 105% | 122% | 127% | 81.3% | 122%
